At least one structure is not confirmed: it was looked up by name or label, or the drawing left a doubt.
What was measured:
Format in all cases: cell-based, human
hMNs [1] = experiment: Axonal regrowth after axotomy in microfluidic devices; details: microfluidic devices (FIG. 36)
hMNs [2] = experiment: Neurite outgrowth assay (Sholl analysis) of hMNs; details: cells treated with JNKi (FIGS. 34-35)
Method: Given the reported role of STMN2 in regulating axonal growth by promoting the dynamic instability of microtubules (77), phenotypic assays were carried out characterizing neurite outgrowth in the STMN2−/− hMNs. After 7 days in culture, sorted hMNs were fixed and stained for β-III-tubulin to label the neuronal processes (FIG. 4E).
Individual Tuj1-positive neurons used for Sholl analyses were randomly selected and imaged using a Nikon Eclipse TE300 with a 40× objective. The neurites were traced using the ImageJ (NIH) plugin NeuronJ (78), and Sholl analysis was performed using the Sholl tool of Fiji (96), quantifying the number of intersections at 10-μm intervals from the cell body. Statistical analysis was performed by comparing the number of intersections of KO clones with the parental WT line for each 10-μm interval using Prism 6 (Graph Pad, La Jolla, CA, USA). Significance was assessed by a standard Student's t-test, with a p value of p<0.05 considered as significant.

STMN2 protein = experiment: Immunoblot of STMN2 protein levels in hMNs

Question: Which “axon regeneration after injury” value (hMNs [1]) does the source give for `Oc1c2ccccc2c2c3c(cccc13)N=N2` [SP600125] here?
Answer: increases axon regeneration

Question: And the “neurite outgrowth / neurite branching” value (hMNs [2])?
Answer: increased neurite branching and regrowth following injury

Question: What about the “STMN2 protein levels in cells treated with siTDP43” value (STMN2 protein; JNKi plus siTDP43 (FIG. 33)) of the same molecule?
Answer: could be rescued

Question: What about the STMN2 protein levels (STMN2 protein; neurons treated with JNKi (FIG. 33)) of the same molecule?
Answer: increased

Reference: patent publication US12496327B2, “Methods and compositions for restoring STMN2 levels” (President and Fellows of Harvard College, priority 2019, dated 2025)
